In patent US20050095674A1, “Cannabinoid receptor interacting proteins and methods of use” (priority 2003, published 2005):
These are yes or no findings as the source states them, for the method shown. For some of these results: In cells and extracts the contact can be indirect. Some binding calls cover weakened binding; strength is not graded here. For some of these results: Tags and fused reporters may be left off the sequences shown.

The chains behind the UniProt entries cited, without tags or fusion partners. Residues count along the entry.
UniProt P21554, residues 418-472: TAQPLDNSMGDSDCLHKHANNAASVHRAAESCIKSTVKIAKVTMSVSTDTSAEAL

Legend:
[1] = target: amino acids at positions 418-472 of the human cannabinoid receptor (CB1) fused to the GALA DNA binding domain (human) (UniProt P04386+P21554); assay: yeast two-hybrid, beta-galactosidase colour
[2] = target: GST fusion peptide of GST and amino acids at position 418-472 of the CB1 receptor (pGEX-4T-1) (human) (UniProt P21554); assay: GST pull-down on Glutathione Sepharose-4B
[3] = target: GST fusion peptide of GST and amino acids at position 418-472 of the CB1 receptor (pGEX-4T-1) (human) (UniProt P21554); assay: GST pull-down on Glutathione Sepharose-4B, Coomassie-stained SDS-PAGE
[4] = target: GST fusion peptide of GST and amino acids at position 418-472 of the CB1 receptor (pGEX-4T-1) (human) (UniProt P21554); assay: GST pull-down on Glutathione Sepharose-4B, Western blot with S-tag probe

binding [1]	binding [2]	binding [3]	binding [4]	Binder
binds	–	–	–	CRIP1b amino acids 34-128 of SEQ ID NO:2 (part of exon 1 + exon 2 + exon 3), yeast two-hybrid clone (protein, not shown: large carriers) QNRTIKLLTGSSYKVEVKIKPSTLQVENISIGGVLVPLELKSKEPDGDRVVYTGTYDTEGVTPTKSGERQPIQITMPECLEQRPQEISLTYECEE
–	binds	binds	binds	S-tagged CRIP1b (amino acids at positions 34-128) expressed from pET30C in BL21(DE3) E. coli (protein, not shown: small tags and cut ends) QNRTIKLLTGSSYKVEVKIKPSTLQVENISIGGVLVPLELKSKEPDGDRVVYTGTYDTEGVTPTKSGERQPIQITMPECLEQRPQEISLTYECEE
